Source: PubChem BioAssay (NCATS)
The inconclusive results got no clear call from the source; some entries with a clear call stand among them for comparison. Potencies beside an inconclusive call are fits to weak or partial responses and may not hold up. The source made the active and inactive calls. Calls come from the whole dose curve; as a rule, active = well fitted cell-killing curve with a large enough effect; inconclusive = small, poorly fitted or top-dose-only effect, or effect the other way; inactive = no such curve, though single readings can be large or run the other way.

assay: Quantitative High-Throughput drug screen in 47 multiple myeloma cell lines against the NCATS MIPE library collection: ARP1_JJKsccF8 cell viability assay (AID 1918928; note: nearly all actives have a fitted effect of over 40% in size); conditions: ARP1 myeloma cells viability, CellTiter-Glo ATP, 48 h; viability: at 45.8 µM (top of the series)
Description: PI: Beverly A. Mock Ph.D.
Laboratory of Cancer Biology and Genetics,
Center for Cancer Research, National Cancer Institute,
National Institute of Health, Bethesda, Maryland
Drug resistance and disease progression are common in multiple myeloma (MM) patients, underscoring the need for new therapeutic combinations. […] We hypothesized that effective combinations would reduce MYC expression and enhance p16 activity. […] These preclinical data identify potentially useful drug combinations for evaluation in drug-resistant MM and reveal potential mechanisms of combined drug sensitivity.
Described herein is the primary MIPE qHTS used to cherrypick compounds. Validated compounds were then further tested for potential synergistic activiy.
[1] Peat TJ, Gaikwad SM, Dubois W, Gyabaah-Kessie N, Zhang S, Gorjifard S, Phyo Z, Andres M, Hughitt VK, Simpson RM, Miller MA, Girvin AT, Taylor A, Williams D, D'Antonio N, Zhang Y, Rajagopalan A, Flietner E, Wilson K, Zhang X, Shinn P, Klumpp-Thomas C, McKnight C, Itkin Z, Chen L, Kazandijian D, Zhang J, Michalowski AM, Simmons JK, Keats J, Thomas CJ, Mock BA. Drug combinations identified by high-throughput screening promote cell cycle transition and upregulate Smad pathways in myeloma. Cancer Lett. 2023 Aug 1;568:216284. doi: 10.1016/j.canlet.2023.216284. Epub 2023 Jun 24. PMID: 37356470; PMCID: PMC10408729.
SEQUENCE No. (e.g., 1, 2, 3, etc.); […] (e.g., Cells, Incubation, Reagent, etc.); VALUE and DESCRIPTION.
1; Cells; 5 uL; white, solid bottom 1536-well Greiner assay plate.
2; Compounds; 23 nL; Kalypsis pin tool (Wako USA) equipped with a 1536-well pin head to transfer to the assay plates.
3; Incubation; 48 hours; 37C incubation.
4; Reagent;5uL; CellTiter Glo (Promega).
5; Detector; 425V; Luminescence; Viewlux PerkinElmer.
NOTES (numbers refer to Sequence numbers above)
1. The cell-based screening methods employed in this study were like those previously published. Briefly, the corresponding myeloma cell lines were screened in 1,536-well plates with 500 cells, 5-uL per well for inhibition of cell viability (assessed by measuring ATP levels with CellTiterGlo).
2. NCATS MIPE 4.0 library of approved and investigational drugs were added using the Kalypsis pin tool. Wells treated with DMSO only for 100% viability and media only cells for 0% viability were used as controls.
3. The assay plates were covered and incubated for 48 hours in a 37C, 5% CO2 incubator with controlled humidity.
4. After 48 hours, CellTilter-GloTM luminescent substrate mix (Promega) reagent was added to the assay plate and plates we incubated for 5 min at room temperature.
5. Signal was measured as median relative luminescence units on a ViewLux (PerkinElmer) multiplate reader.
[1] Heske CM, Davis MI, Baumgart JT, Wilson K, Gormally MV, Chen L, Zhang X, Ceribelli M, Duveau DY, Guha R, Ferrer M, Arnaldez FI, Ji J, Tran HL, Zhang Y, Mendoza A, Helman LJ, Thomas CJ. Matrix Screen Identifies Synergistic Combination of PARP Inhibitors and Nicotinamide Phosphoribosyltransferase (NAMPT) Inhibitors in Ewing Sarcoma. Clin Cancer Res. 2017 Dec 1;23(23):7301-7311. doi: 10.1158/1078-0432.CCR-17-1121. Epub 2017 Sep 12. PMID: 28899971; PMCID: PMC6636827.
Potency is the fitted concentration of half-maximal effect.

Question: Which Potency does the source give for `Cc1ccc(Nc2cc(-c3cccc(N4C(=O)c5ccccc5C4=O)c3)ncn2)cc1NS(C)(=O)=O` here?
Answer: The Potency was inconclusive: 16.6 µM [cytotoxic, partial curve, poor fit].

Question: With `Cc1nc(Nc2ncc(C(=O)Nc3c(C)cccc3Cl)s2)cc(N2CCN(CCO)CC2)n1` as the compound, how does the Potency read?
Answer: The Potency was inconclusive: 16.6 µM [cytotoxic, partial curve].

Question: Which Potency does the source give for `Cc1ccc(/C=N/NC(=O)c2ccccc2Oc2ccccc2)o1` here?
Answer: The Potency was inconclusive: 20.9 µM [cytotoxic, partial curve].

Question: Which Potency does the source give for `C[C@]12CC[C@@H]3c4ccc(O)cc4C[C@@H](CCCCCCCCCS(=O)CCCC(F)(F)C(F)(F)F)[C@H]3[C@H]1CC[C@H]2O` (stereo not given in full) here?
Answer: Its Potency is inconclusive: 8.33 µM [cytotoxic, full curve, poor fit].

Question: Which Potency does the source give for `COc1ccc(-c2oc3c(CC=C(C)C)c(OC4O[C@H](CO)[C@@H](O)[C@H](O)[C@@H]4O)cc(O)c3c(=O)c2OC2O[C@@H](C)[C@H](O)[C@@H](O)[C@@H]2O)cc1` (stereo not given in full) here?
Answer: The Potency was active: 16.6 µM.

Question: For `CN(C)C(=O)C(CCN1CCC(O)(c2ccc(Cl)cc2)CC1)(c1ccccc1)c1ccccc1`, which Potency is on record?
Answer: The Potency was inconclusive: 18.7 µM [cytotoxic, partial curve].

Question: For `COc1ccc(Nc2nccc(NCCO)n2)cc1`, which Potency is on record?
Answer: The Potency was “inactive”.

Question: For `COc1cc([C@@H]2c3cc4c(cc3[C@H](O)[C@H]3COC(=O)[C@@H]23)OCO4)cc(OC)c1OC`, which Potency is on record?
Answer: Its Potency is active: 0.0526 µM.

Question: For `COC(=O)N[C@H](C(=O)N1CCC[C@@H]1c1ncc(-c2ccc(-c3ccc(-c4cnc([C@@H]5CCCN5C(=O)[C@@H](NC(=O)OC)C(C)C)[nH]4)cc3)cc2)[nH]1)C(C)C`, which Potency is on record?
Answer: The Potency was inconclusive: 33.2 µM [cytotoxic, single point].

Question: For `Cn1c(N2CCCCS2(=O)=O)nc(C(=O)NCc2ccc(F)cc2)c(O)c1=O`, which Potency is on record?
Answer: Its Potency is inconclusive: 10.5 µM [cytotoxic, partial curve, poor fit].

Question: With `Clc1cc(Cl)cc(CNc2ncncc2-c2ccc3c(c2)OCO3)c1` as the compound, how does the Potency read?
Answer: Its Potency is inconclusive: 16.6 µM [cytotoxic, partial curve].

Question: Which Potency does the source give for `NC(=O)c1ccc(N(C(N)=O)c2c(F)cccc2F)nc1-c1ccc(F)cc1F` here?
Answer: Its Potency is “inactive”.

Question: With `COc1cc([C@H]2Oc3cc([C@H]4Oc5cc(O)cc(O)c5C(=O)[C@H]4O)ccc3O[C@H]2CO)ccc1O` as the compound, how does the Potency read?
Answer: The Potency was active: 16.6 µM.

Question: For `COc1ccc(-c2c(-c3ccc(O)cc3O)n[nH]c2C)cc1`, which Potency is on record?
Answer: The Potency was inconclusive: 42.9 µM [cytotoxic, partial curve].

Question: For `O=C(N[C@H](CO)[C@H](O)c1ccc([N+](=O)[O-])cc1)C(Cl)Cl`, which Potency is on record?
Answer: Its Potency is “inactive”.

Question: With `CC(C)n1nc(-c2ccc3oc(N)nc3c2)c2c(N)ncnc21` as the compound, how does the Potency read?
Answer: The Potency was inconclusive: 0.0059 µM [cytotoxic, full curve].

Question: For `NC(=O)OCC(COC(N)=O)c1ccccc1`, which Potency is on record?
Answer: Its Potency is “inactive”.

Question: For `CC(=O)OCC(=O)[C@@]1(O)[C@H](C)C[C@H]2[C@@H]3C=C(C)C4=Cc5c(cnn5-c5ccccc5)C[C@]4(C)[C@@H]3[C@@H](O)C[C@@]21C`, which Potency is on record?
Answer: The Potency was active: 4.69 µM.

Question: For `CN1CCN(CCOc2cc(OC3CCOCC3)c3c(Nc4c(Cl)ccc5c4OCO5)ncnc3c2)CC1`, which Potency is on record?
Answer: The Potency was inconclusive: 29.6 µM [cytotoxic, single point].

Question: For `CCOC(=O)N[C@@H]1CC[C@@H]2[C@@H](C1)C[C@H]1C(=O)O[C@H](C)[C@H]1[C@@H]2C=Cc1ccc(-c2cccc(F)c2)cn1`, which Potency is on record?
Answer: Its Potency is inconclusive: 29.6 µM [cytotoxic, single point].

Question: With `CO[C@H]1C[C@@H]2CC[C@@H](C)[C@@](O)(O2)C(=O)C(=O)N2CCCC[C@@H]2C(=O)O[C@H]([C@H](C)C[C@@H]2CC[C@H](OC(=O)C(C)(CO)CO)[C@H](OC)C2)CC(=O)[C@H](C)C=C(C)[C@@H](O)[C@@H](OC)C(=O)[C@H](C)C[C@H](C)C=CC=CC=C1C` as the compound, how does the Potency read?
Answer: The Potency was inconclusive: 33.2 µM [cytotoxic, single point].

Question: Which Potency does the source give for `COc1ccc(-c2nc(N3CCOCC3)c3sc(CN(C)c4ncc(C(=O)NO)cn4)cc3n2)cn1` here?
Answer: Its Potency is “inactive”.

Question: For `Cc1cccc(-c2[nH]c(C(C)(C)C)nc2-c2ccc3nccnc3c2)n1`, which Potency is on record?
Answer: The Potency was inconclusive: 18.7 µM [cytotoxic, partial curve, poor fit].

Question: For `COc1cc(Nc2nc3ccccc3nc2NS(=O)(=O)c2ccc(NC(=O)c3ccc(C)c(OC)c3)cc2)cc(OC)c1`, which Potency is on record?
Answer: Its Potency is inconclusive: 20.9 µM [cytotoxic, partial curve, poor fit].

Question: For `CN1C(=O)C[C@H](C(=O)N[C@@H](Cc2cnc[nH]2)C(=O)N2CCC[C@@H]2C(N)=O)NC1=O`, which Potency is on record?
Answer: Its Potency is inconclusive: 2.35 µM [cytotoxic, full curve, poor fit].

Question: Which Potency does the source give for `CCCCC(C=O)NC(=O)C(CC(C)C)NC(=O)OCc1ccccc1` (stereo not given) here?
Answer: The Potency was inconclusive: 26.4 µM [cytotoxic, single point].

Question: For `O=C(O)CSCC(=O)NC1CCSC1=O` (stereo not given), which Potency is on record?
Answer: The Potency was “inactive”.

Question: For `NC(=O)[C@@H](CCC(F)(F)F)N(Cc1ccc(-c2ncon2)cc1F)S(=O)(=O)c1ccc(Cl)cc1`, which Potency is on record?
Answer: The Potency was inconclusive: 11.8 µM [cytotoxic, partial curve, poor fit].

Question: With `Cc1cc(=O)oc2cc(O)ccc12` as the compound, how does the Potency read?
Answer: Its Potency is “inactive”.

Question: Which Potency does the source give for `CCn1c(C(=O)N(C2CC2)C2CC2)cc2c3c(ncn3C)c(Nc3cc(C)n(C)n3)nc21` here?
Answer: The Potency was inconclusive: 0.187 µM [cytotoxic, full curve, poor fit].

Question: Which Potency does the source give for `OC(c1cc(C(F)(F)F)nc2c(C(F)(F)F)cccc12)C1CCCCN1` (stereo not given) here?
Answer: The Potency was inconclusive: 23.5 µM [cytotoxic, partial curve, poor fit].

Question: With `COc1cc(N2CCC(N3CCN(C)CC3)CC2)ccc1Nc1ncnc(Nc2ccccc2S(=O)(=O)C(C)C)n1` as the compound, how does the Potency read?
Answer: The Potency was inconclusive: 0.118 µM [rising, full curve, poor fit].

Question: Which Potency does the source give for `CC[C@H]1OC(=O)[C@H](C)C(=O)[C@H](C)[C@@H](O[C@H]2O[C@H](C)C[C@H](N(C)C)[C@@H]2O)[C@](C)(OC)C[C@@H](C)C(=O)[C@H](C)[C@H]2N(CCCCn3cnc(-c4cccnc4)c3)C(=O)O[C@]12C` here?
Answer: Its Potency is inconclusive: 29.6 µM [cytotoxic, single point].

Question: Which Potency does the source give for `C=CC[N+]1([C@H]2C[C@H]3[C@@H]4CC[C@H]5C[C@H](O)[C@@H](N6CCOCC6)C[C@]5(C)[C@@H]4CC[C@]3(C)[C@H]2OC(C)=O)CCCC1` here?
Answer: Its Potency is inconclusive: 23.5 µM [cytotoxic, single point].

Question: Which Potency does the source give for `CO[C@@H](C(=O)N1Cc2[nH]nc(NC(=O)c3ccc(N4CCN(C)CC4)cc3)c2C1)c1ccccc1` here?
Answer: The Potency was inconclusive: 14.8 µM [cytotoxic, partial curve].

Question: With `COCCCCC(=NOCCN)c1ccc(C(F)(F)F)cc1` as the compound, how does the Potency read?
Answer: Its Potency is inconclusive: 20.9 µM [cytotoxic, partial curve].

Question: With `O=C(Nc1cccc(Br)c1)c1cccc(S(=O)(=O)N2CCCCCC2)c1` as the compound, how does the Potency read?
Answer: Its Potency is inconclusive: 16.6 µM [cytotoxic, partial curve, poor fit].

Question: With `O=C(O)C(O)Cc1ccc(O)c(O)c1` (stereo not given) as the compound, how does the Potency read?
Answer: The Potency was active: 23.5 µM.

Question: Which Potency does the source give for `CON(C)C(=O)N1N=C(c2cc(F)ccc2F)S[C@]1(CCCN)c1ccccc1` here?
Answer: The Potency was inconclusive: 11.8 µM [rising, partial curve, poor fit].

Question: With `C[C@@H]1CCO[C@H]2Cn3cc(C(=O)NCc4ccc(F)cc4F)c(=O)c(O)c3C(=O)N12` as the compound, how does the Potency read?
Answer: The Potency was inconclusive: 3.32 µM [cytotoxic, full curve, poor fit].
